Results as given in paper PMC8882672.
No constants are given. Whether binding was seen depends on the method and setting. In cells and extracts the contact can be indirect. Some entries that bind do so weakly or less than the wild type.

Protein sequences, listed by entry. Tags and fused reporters are not part of them.
UniProt P08631: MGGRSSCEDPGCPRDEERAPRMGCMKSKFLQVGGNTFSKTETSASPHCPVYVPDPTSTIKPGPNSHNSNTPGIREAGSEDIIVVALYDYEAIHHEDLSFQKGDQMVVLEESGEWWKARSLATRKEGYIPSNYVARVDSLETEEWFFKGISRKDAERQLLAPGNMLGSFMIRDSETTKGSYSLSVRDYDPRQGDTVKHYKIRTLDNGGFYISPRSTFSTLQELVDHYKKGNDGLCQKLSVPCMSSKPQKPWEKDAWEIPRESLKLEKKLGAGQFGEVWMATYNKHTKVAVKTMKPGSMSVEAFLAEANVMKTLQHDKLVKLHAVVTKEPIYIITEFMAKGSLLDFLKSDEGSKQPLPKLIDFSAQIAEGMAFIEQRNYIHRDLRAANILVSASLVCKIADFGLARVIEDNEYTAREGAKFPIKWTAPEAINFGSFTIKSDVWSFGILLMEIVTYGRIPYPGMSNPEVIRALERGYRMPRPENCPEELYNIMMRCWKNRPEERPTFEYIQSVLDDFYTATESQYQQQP
UniProt P40763: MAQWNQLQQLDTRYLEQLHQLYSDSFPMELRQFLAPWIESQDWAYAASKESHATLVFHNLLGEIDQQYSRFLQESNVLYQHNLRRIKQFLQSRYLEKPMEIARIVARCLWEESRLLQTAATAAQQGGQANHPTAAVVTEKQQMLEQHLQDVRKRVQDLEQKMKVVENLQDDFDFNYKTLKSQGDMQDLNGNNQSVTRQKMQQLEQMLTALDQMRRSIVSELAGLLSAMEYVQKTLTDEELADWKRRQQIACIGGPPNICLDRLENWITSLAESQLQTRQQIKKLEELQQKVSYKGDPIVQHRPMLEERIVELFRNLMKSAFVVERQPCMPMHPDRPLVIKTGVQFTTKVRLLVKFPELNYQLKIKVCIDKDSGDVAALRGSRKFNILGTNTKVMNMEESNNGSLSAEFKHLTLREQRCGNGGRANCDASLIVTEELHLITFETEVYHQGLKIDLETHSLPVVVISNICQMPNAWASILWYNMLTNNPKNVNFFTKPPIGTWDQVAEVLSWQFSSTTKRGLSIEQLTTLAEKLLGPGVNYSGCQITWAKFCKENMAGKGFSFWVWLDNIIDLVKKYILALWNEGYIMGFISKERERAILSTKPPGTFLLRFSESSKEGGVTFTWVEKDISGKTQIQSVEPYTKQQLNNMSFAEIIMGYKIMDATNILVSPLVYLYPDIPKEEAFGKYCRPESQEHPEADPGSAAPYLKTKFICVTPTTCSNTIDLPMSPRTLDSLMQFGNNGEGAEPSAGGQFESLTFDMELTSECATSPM

What was measured:
HCK = HCK (UniProt P08631); test: co-IP; NCM460 cells infected with vector-, BMX- or HCK-overexpressing construct; cell lysates incubated with FLAG antibody at 4 °C for 4 h, protein G-agarose beads at 4 °C overnight; beads washed with PBS with 0.1% Tween 20; western blot
BMX = target: T1, BMX (UniProt P51813); test: as above
T1 sequence: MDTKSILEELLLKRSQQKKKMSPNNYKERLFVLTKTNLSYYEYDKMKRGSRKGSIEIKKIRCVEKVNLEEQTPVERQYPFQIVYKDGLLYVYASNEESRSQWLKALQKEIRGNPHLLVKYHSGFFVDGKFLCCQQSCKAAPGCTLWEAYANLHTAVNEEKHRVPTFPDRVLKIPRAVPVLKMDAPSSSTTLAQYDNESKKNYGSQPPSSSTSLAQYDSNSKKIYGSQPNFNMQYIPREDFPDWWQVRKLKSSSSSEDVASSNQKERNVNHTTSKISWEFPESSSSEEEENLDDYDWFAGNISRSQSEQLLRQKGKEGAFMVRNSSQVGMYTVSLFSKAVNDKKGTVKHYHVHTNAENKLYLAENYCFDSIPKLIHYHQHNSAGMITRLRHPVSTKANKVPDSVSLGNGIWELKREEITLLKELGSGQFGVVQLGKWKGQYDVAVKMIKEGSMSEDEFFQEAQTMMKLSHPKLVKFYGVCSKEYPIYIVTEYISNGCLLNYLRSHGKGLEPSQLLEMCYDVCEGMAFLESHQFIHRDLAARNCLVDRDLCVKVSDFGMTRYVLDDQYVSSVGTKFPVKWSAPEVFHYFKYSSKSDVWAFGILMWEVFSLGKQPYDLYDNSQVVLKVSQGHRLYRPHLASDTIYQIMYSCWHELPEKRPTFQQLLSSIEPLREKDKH

- binding (HCK): binds
- binding (BMX): binds
Substance: STAT3 (from UniProt P40763 1-770)
